Assay results published in publication doi:10.1101/2024.06.17.598829 (bioRxiv, 2024).
Changes are numbered by the printed parent chain. These are yes or no findings as the source states them, for the method shown. In cells and extracts the contact can be indirect. Some entries that bind do so weakly or less than the wild type. For part of these data: Where a sequence is shown, tags or fusion partners need not be part of it. Values belong to the binder of their own block, whether it stands above or below them.

Experiments:
Experiment in all cases: co-IP
[1] = target: T1, ROOT PHOTOTROPISM 2 (RPT2), RFP-tagged (Arabidopsis thaliana) (UniProt Q682S0)
T1 sequence: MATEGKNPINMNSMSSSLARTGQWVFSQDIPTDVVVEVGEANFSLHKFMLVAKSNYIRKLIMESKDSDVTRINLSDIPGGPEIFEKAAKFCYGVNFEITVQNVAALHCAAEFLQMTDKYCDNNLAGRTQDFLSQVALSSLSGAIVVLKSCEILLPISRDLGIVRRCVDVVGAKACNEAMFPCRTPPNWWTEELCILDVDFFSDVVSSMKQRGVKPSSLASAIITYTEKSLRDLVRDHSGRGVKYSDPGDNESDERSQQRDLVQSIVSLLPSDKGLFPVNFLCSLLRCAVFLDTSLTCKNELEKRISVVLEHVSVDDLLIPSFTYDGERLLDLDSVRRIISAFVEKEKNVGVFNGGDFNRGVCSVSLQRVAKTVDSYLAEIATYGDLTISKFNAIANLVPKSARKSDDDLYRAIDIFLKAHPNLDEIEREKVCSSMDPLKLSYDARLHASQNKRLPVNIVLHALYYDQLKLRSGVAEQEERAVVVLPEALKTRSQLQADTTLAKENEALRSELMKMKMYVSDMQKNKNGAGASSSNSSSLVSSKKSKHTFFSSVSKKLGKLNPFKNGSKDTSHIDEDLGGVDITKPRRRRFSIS

[2] = target: NPH3ΔN197 (Arabidopsis thaliana) (UniProt Q9FMF5)
[3] = target: T2, NPH3_WLM/E (Arabidopsis thaliana) (UniProt Q9FMF5)
T2 sequence: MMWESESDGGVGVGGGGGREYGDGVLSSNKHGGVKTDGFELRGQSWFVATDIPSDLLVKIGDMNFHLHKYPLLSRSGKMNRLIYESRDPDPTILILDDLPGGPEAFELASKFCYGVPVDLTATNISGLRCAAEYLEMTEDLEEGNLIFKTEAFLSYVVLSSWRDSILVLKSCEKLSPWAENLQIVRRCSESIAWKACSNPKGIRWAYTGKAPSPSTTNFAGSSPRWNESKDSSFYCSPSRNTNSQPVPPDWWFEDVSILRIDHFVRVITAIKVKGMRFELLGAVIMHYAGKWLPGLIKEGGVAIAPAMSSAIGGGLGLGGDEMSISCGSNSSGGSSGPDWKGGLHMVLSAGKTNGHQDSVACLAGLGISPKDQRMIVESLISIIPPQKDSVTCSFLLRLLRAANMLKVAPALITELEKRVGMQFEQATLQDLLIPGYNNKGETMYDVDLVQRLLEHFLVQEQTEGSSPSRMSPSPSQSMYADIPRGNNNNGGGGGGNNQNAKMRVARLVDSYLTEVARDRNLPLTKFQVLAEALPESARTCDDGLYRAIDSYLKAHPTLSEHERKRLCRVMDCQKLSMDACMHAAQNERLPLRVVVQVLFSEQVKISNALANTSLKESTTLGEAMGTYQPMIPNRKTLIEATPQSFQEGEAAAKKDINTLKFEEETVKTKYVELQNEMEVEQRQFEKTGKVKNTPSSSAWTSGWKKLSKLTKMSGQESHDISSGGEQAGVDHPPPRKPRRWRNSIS

[4] = target: T3, NPH3_S744A (Arabidopsis thaliana) (UniProt Q9FMF5)
T3 sequence: T2 sequence with E650W, E664L, E681M, S744A

[5] = target: T4, NPH3ΔC51 (Arabidopsis thaliana) (UniProt Q9FMF5)
T4 sequence: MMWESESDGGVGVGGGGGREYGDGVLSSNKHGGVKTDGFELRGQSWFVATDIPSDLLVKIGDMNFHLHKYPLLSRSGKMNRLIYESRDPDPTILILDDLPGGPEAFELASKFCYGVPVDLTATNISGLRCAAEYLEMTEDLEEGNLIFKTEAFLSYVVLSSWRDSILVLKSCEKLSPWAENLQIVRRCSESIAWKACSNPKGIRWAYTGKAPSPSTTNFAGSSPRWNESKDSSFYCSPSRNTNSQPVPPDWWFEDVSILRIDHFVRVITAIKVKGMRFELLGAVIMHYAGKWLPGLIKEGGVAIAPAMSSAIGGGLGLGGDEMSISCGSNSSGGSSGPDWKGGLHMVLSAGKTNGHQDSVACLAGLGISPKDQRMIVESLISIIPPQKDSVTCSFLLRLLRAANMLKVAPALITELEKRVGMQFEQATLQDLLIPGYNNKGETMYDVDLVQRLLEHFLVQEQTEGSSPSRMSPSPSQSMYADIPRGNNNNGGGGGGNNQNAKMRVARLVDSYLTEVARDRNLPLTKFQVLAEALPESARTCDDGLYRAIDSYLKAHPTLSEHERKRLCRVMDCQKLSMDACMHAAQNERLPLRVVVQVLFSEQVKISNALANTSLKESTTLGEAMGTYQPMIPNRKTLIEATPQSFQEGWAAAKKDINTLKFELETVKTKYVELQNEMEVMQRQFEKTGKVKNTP

[6] = target: T5, NON-PHOTOTROPIC HYPOCOTYL 3 (NPH3), fluorophore-tagged, expressed in N. benthamiana (Arabidopsis thaliana) (UniProt Q9FMF5)
T5 sequence: T2 sequence with E650W, E664L, E681M

- binding [1]: binds
- binding [2]: binds
B1: NPH3ΔN197 (domain or fragment, UniProt Q9FMF5 198-746)
chain: SNPKGIRWAYTGKAPSPSTTNFAGSSPRWNESKDSSFYCSPSRNTNSQPVPPDWWFEDVSILRIDHFVRVITAIKVKGMRFELLGAVIMHYAGKWLPGLIKEGGVAIAPAMSSAIGGGLGLGGDEMSISCGSNSSGGSSGPDWKGGLHMVLSAGKTNGHQDSVACLAGLGISPKDQRMIVESLISIIPPQKDSVTCSFLLRLLRAANMLKVAPALITELEKRVGMQFEQATLQDLLIPGYNNKGETMYDVDLVQRLLEHFLVQEQTEGSSPSRMSPSPSQSMYADIPRGNNNNGGGGGGNNQNAKMRVARLVDSYLTEVARDRNLPLTKFQVLAEALPESARTCDDGLYRAIDSYLKAHPTLSEHERKRLCRVMDCQKLSMDACMHAAQNERLPLRVVVQVLFSEQVKISNALANTSLKESTTLGEAMGTYQPMIPNRKTLIEATPQSFQEGWAAAKKDINTLKFELETVKTKYVELQNEMEVMQRQFEKTGKVKNTPSSSAWTSGWKKLSKLTKMSGQESHDISSGGEQAGVDHPPPRKPRRWRNSIS

- binding [3]: binds weakly
- binding [4]: binds
- binding [5]: binds
- binding [6]: binds
B2: NPH3ΔC51 (domain or fragment, UniProt Q9FMF5 1-695)
chain: T4 sequence
